Measurements reported in PubChem BioAssay AID1508597 (Cure First, 2020).

Assay: 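Genes whose silencing sensitises or protects ovarian cancer cells against rucaparib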 (primary screen)
Cell system: human ovarian carcinoma lines grown from tumours: OCI-P5x (papillary serous) and OCI-C5x (clear cell)
Reagents: siRNA pool against human genes, 1.25 pmol siRNA per well
Time to read-out: 72 h or 96 h, depending on the cell culture
Challenge: rucaparib 20 µM (about IC30) or vehicle, present until read-out
Rucaparib or vehicle: Vehicle
Cell line: OCI-C5x (clear cell)
Measurement: 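ATP luminescence measured at 72 or 96 h according to the culture, then normalised and expressed as percent viability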
Reading the numbers: viability, normalised: higher = more viable cells remaining
Call rule: 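a well counts as a hit if its normalised viability is under 80 percent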
Meaning of the calls: active = viability under 80%; inactive = viability 80% or more
This is a random part of the about 2,100 reagents, under one of the conditions tested. 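Calls flag viability under 80% in either arm, not effects specific to rucaparib; the reference for percent is not stated.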 A number with no mark means an inactive call. A reagent listed more than once was tested more than once; the source does not tell the runs apart. No sequences are given here. Not stated in the record: the 100% reference.

gene symbol	technical replicate	viability, normalised (%)
SLC25A26 (GeneID 115286)	1	65.1 (active)
SLC25A26 (GeneID 115286)	2	47.5 (active)
SLC25A26 (GeneID 115286)	3	63.8 (active)
CLOCK (GeneID 9575)	1	37.8 (active)
CLOCK (GeneID 9575)	2	57.2 (active)
CLOCK (GeneID 9575)	3	51.6 (active)
STYK1 (GeneID 55359)	1	46.7 (active)
STYK1 (GeneID 55359)	2	54.5 (active)
STYK1 (GeneID 55359)	3	56.2 (active)
CLDN3 (GeneID 1365)	1	46.1 (active)
CLDN3 (GeneID 1365)	2	48.6 (active)
CLDN3 (GeneID 1365)	3	53.5 (active)
PRMT6 (GeneID 55170)	1	35 (active)
PRMT6 (GeneID 55170)	2	51.1 (active)
PRMT6 (GeneID 55170)	3	48.7 (active)

No new results follow: an excerpt of the list.
gene symbol	technical replicate	viability, normalised (%)
STYK1 (GeneID 55359)	2	54.5 (active)
STYK1 (GeneID 55359)	3	56.2 (active)
CLDN3 (GeneID 1365)	1	46.1 (active)
CLDN3 (GeneID 1365)	2	48.6 (active)
CLDN3 (GeneID 1365)	3	53.5 (active)

Next entries follow.
gene symbol	technical replicate	viability, normalised (%)
ATAT1 (GeneID 79969)	1	38.8 (active)
ATAT1 (GeneID 79969)	2	42.3 (active)
ATAT1 (GeneID 79969)	3	40 (active)
MEMO1 (GeneID 51072)	1	44.7 (active)
MEMO1 (GeneID 51072)	2	37.1 (active)
MEMO1 (GeneID 51072)	3	60.3 (active)
APTX (GeneID 54840)	1	69 (active)
APTX (GeneID 54840)	2	57.4 (active)
APTX (GeneID 54840)	3	61.7 (active)
SP3 (GeneID 6670)	1	23.9 (active)
SP3 (GeneID 6670)	2	20.3 (active)
SP3 (GeneID 6670)	3	29.9 (active)
PXK (GeneID 54899)	1	72.7 (active)
PXK (GeneID 54899)	2	48.3 (active)
PXK (GeneID 54899)	3	53 (active)
TSSK1A (GeneID 23752)	1	62.4 (active)
TSSK1A (GeneID 23752)	2	62.9 (active)
TSSK1A (GeneID 23752)	3	63.6 (active)
TWF2 (GeneID 11344)	1	55.6 (active)
TWF2 (GeneID 11344)	2	31.8 (active)
TWF2 (GeneID 11344)	3	50.4 (active)
SMARCAL1 (GeneID 50485)	1	37.8 (active)
SMARCAL1 (GeneID 50485)	1	34.6 (active)
SMARCAL1 (GeneID 50485)	2	45.4 (active)
SMARCAL1 (GeneID 50485)	2	31.1 (active)
SMARCAL1 (GeneID 50485)	3	44.1 (active)
SMARCAL1 (GeneID 50485)	3	42.2 (active)
